Experimental data as given in paper doi:10.1101/2023.08.03.551696.
These are yes or no findings as the source states them, for the method shown. For part of these data: In cells and extracts the contact can be indirect. Some entries that bind do so weakly or less than the wild type. For part of these data: Sequences can lack the tags named with a protein. Blank lines part the entries; values can stand above or below the molecule they belong to.

Amino acid sequences for entries named in this document (tags omitted). Residues count along the entry.
UniProt P01584, 117-269: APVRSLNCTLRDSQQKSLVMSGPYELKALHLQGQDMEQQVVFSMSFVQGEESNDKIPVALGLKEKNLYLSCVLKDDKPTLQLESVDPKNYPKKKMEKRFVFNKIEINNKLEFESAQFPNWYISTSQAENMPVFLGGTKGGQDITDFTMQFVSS

Key:
[1] = biological target: T1, MxA-V5 (myxovirus resistant protein 1, V5-tagged) (human) (UniProt P20591); test: co-IP
T1 sequence: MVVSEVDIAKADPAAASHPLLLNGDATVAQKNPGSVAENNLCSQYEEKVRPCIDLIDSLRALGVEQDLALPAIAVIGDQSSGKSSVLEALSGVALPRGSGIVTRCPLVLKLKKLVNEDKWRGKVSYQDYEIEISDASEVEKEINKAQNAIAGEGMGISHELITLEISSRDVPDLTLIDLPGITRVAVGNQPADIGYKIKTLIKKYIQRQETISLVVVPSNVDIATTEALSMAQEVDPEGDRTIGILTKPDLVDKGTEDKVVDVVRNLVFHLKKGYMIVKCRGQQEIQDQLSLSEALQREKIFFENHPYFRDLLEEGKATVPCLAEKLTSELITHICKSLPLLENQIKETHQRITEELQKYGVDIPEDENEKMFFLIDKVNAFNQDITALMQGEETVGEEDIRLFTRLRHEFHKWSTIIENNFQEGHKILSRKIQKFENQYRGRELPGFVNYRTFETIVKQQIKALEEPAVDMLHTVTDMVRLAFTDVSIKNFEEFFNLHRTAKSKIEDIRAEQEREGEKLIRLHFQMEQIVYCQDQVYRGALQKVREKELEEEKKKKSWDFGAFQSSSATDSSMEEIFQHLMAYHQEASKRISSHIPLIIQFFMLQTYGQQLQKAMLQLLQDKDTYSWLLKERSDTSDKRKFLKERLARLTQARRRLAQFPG

[2] = biological target: MxA (endogenous, membrane-bound) (human (endogenous in BLaER1)) (UniProt P20591); test: semidenaturing detergent agarose gel electrophoresis
[3] = biological target: purified human MxA (recombinant) (human) (UniProt P20591); test: cross-linking

Molecule: mature IL-1β (endogenous) (from UniProt P01584 117-269)
binding [1]: binds

binding [2]: binds
B1: MxA (endogenous, membrane-bound) (protein, UniProt P20591 1-662)
chain: MVVSEVDIAKADPAAASHPLLLNGDATVAQKNPGSVAENNLCSQYEEKVRPCIDLIDSLRALGVEQDLALPAIAVIGDQSSGKSSVLEALSGVALPRGSGIVTRCPLVLKLKKLVNEDKWRGKVSYQDYEIEISDASEVEKEINKAQNAIAGEGMGISHELITLEISSRDVPDLTLIDLPGITRVAVGNQPADIGYKIKTLIKKYIQRQETISLVVVPSNVDIATTEALSMAQEVDPEGDRTIGILTKPDLVDKGTEDKVVDVVRNLVFHLKKGYMIVKCRGQQEIQDQLSLSEALQREKIFFENHPYFRDLLEEGKATVPCLAEKLTSELITHICKSLPLLENQIKETHQRITEELQKYGVDIPEDENEKMFFLIDKVNAFNQDITALMQGEETVGEEDIRLFTRLRHEFHKWSTIIENNFQEGHKILSRKIQKFENQYRGRELPGFVNYRTFETIVKQQIKALEEPAVDMLHTVTDMVRLAFTDVSIKNFEEFFNLHRTAKSKIEDIRAEQEREGEKLIRLHFQMEQIVYCQDQVYRGALQKVREKELEEEKKKKSWDFGAFQSSSATDSSMEEIFQHLMAYHQEASKRISSHIPLIIQFFMLQTYGQQLQKAMLQLLQDKDTYSWLLKERSDTSDKRKFLKERLARLTQARRRLAQFPG

binding [3]: binds
B2: purified human MxA (recombinant) (protein, UniProt P20591 1-662)
chain: MVVSEVDIAKADPAAASHPLLLNGDATVAQKNPGSVAENNLCSQYEEKVRPCIDLIDSLRALGVEQDLALPAIAVIGDQSSGKSSVLEALSGVALPRGSGIVTRCPLVLKLKKLVNEDKWRGKVSYQDYEIEISDASEVEKEINKAQNAIAGEGMGISHELITLEISSRDVPDLTLIDLPGITRVAVGNQPADIGYKIKTLIKKYIQRQETISLVVVPSNVDIATTEALSMAQEVDPEGDRTIGILTKPDLVDKGTEDKVVDVVRNLVFHLKKGYMIVKCRGQQEIQDQLSLSEALQREKIFFENHPYFRDLLEEGKATVPCLAEKLTSELITHICKSLPLLENQIKETHQRITEELQKYGVDIPEDENEKMFFLIDKVNAFNQDITALMQGEETVGEEDIRLFTRLRHEFHKWSTIIENNFQEGHKILSRKIQKFENQYRGRELPGFVNYRTFETIVKQQIKALEEPAVDMLHTVTDMVRLAFTDVSIKNFEEFFNLHRTAKSKIEDIRAEQEREGEKLIRLHFQMEQIVYCQDQVYRGALQKVREKELEEEKKKKSWDFGAFQSSSATDSSMEEIFQHLMAYHQEASKRISSHIPLIIQFFMLQTYGQQLQKAMLQLLQDKDTYSWLLKERSDTSDKRKFLKERLARLTQARRRLAQFPG
